PubChem BioAssay AID743121 | NCATS – 2013
Test: 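Partners whose loss is lethal together with topoisomerase I blockade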 (primary screen). Cell system: MDA-MB-231 cells, a human breast cancer line. Knock-down reagent: single siRNA against human genes, 20 nM siRNA (0.8 pmol per well). Duration: 120 h (drug added 48 h after transfection, read 72 h later). Treatment: camptothecin 20 nM (about EC30) for 72 h; vehicle 0.1% DMSO in parallel plates. Detection: 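Cell viability by ATP luminescence (CellTiter-Glo) as % of non-targeting siRNA wells, and the log2 ratio of viability without drug over viability with camptothecin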. Direction: log2 vehicle/camptothecin viability: higher = stronger sensitisation to camptothecin. Hit rule: 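Each gene scored by redundant siRNA activity (RSA) over its individual siRNA ratios; a gene is called active at p < 0.001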.
Shown is one part, drawn at random, of about 26,000 reagents tested. 167 of all reagents (0.63%) count as active. 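Calls are per gene from RSA p-values that are not deposited; an individual active-marked siRNA can sensitise only weakly.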 Unmarked entries are inactive. The numbers tell different reagents against one gene apart. Further read-outs or replicates are left out here.

log2 vehicle/camptothecin viability, by target and reagent
AIFM2 (GeneID 84883): #1 -0.731; #2 -0.0752; #3 0.161; #4 -0.0977
PCDH9 (GeneID 5101): #1 -0.235; #2 -0.394; #3 -0.365; #4 -0.37
HIP1 (GeneID 3092): #1 -0.477; #2 0.401; #3 -0.285; #4 -0.189
AP3D1 (GeneID 8943): #1 -0.317; #2 -0.182; #3 0.421
IL22 (GeneID 50616): #1 -0.431; #2 -0.0841; #3 -0.064; #4 -0.147
EPS8 (GeneID 2059): #1 -0.213; #2 0.0301; #3 0.431; #4 -0.202
AMFR (GeneID 267): #1 -0.246; #2 0.365; #3 0.117; #4 -0.116
BUD23 (GeneID 114049): #1 -0.358; #2 -0.374; #3 -0.31; #4 -0.396
CA14 (GeneID 23632): #1 -0.104; #2 -0.416; #3 -0.0742; #4 -0.751
ADH1A (GeneID 124): #1 -0.0454; #2 0.0339; #3 -0.102; #4 -0.0244

Part of the list above in another layout:
{"target": "BUD23 (GeneID 114049)", "reagent": 3, "log2 vehicle/camptothecin viability": -0.31}
{"target": "BUD23 (GeneID 114049)", "reagent": 4, "log2 vehicle/camptothecin viability": -0.396}
{"target": "CA14 (GeneID 23632)", "reagent": 1, "log2 vehicle/camptothecin viability": -0.104}
{"target": "CA14 (GeneID 23632)", "reagent": 2, "log2 vehicle/camptothecin viability": -0.416}
{"target": "CA14 (GeneID 23632)", "reagent": 3, "log2 vehicle/camptothecin viability": -0.0742}

Continued:
log2 vehicle/camptothecin viability, by target and reagent
RAB27A (GeneID 5873): #1 0.207; #2 -0.164; #3 0.103; #4 -0.376
OMG (GeneID 4974): #1 -0.187; #2 -0.173; #3 -0.184; #4 -0.145
NIM1K (GeneID 167359): #1 -0.307; #2 -0.273; #3 -0.0791
TMT1B (GeneID 196410): #1 0.421; #2 -0.0106; #3 -0.493; #4 0.0233
SCG3 (GeneID 29106): #1 -0.226; #2 -0.0663; #3 -0.474; #4 0.409
PDE6A (GeneID 5145): #1 -0.298; #2 -0.091; #3 -0.311; #4 -0.199
FLRT2 (GeneID 23768): #1 -0.109; #2 -0.607; #3 -0.444; #4 0.0466
CUBN (GeneID 8029): #1 -0.177; #2 -0.3; #3 1.37; #4 0.371
